{"source": "PubChem BioAssay AID504793 – Drosophila RNAi Screening Center, 2011", "aim": "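Genes required for cells to halt at G2/M after double-strand DNA breaks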 (primary screen)", "cell system": "Drosophila S2R+ cells", "reagent": "long dsRNA against Drosophila genes, about 0.25 µg dsRNA per well", "duration": "4 days of dsRNA, then 4 hours of drug before read-out", "challenge": "doxorubicin 0.5 µM for 4 hours to cause double-strand breaks, in cells also given a low, harmless dose of dsRNA against nbs to sensitise the assay", "read-out": "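Per-well count of mitotic cells stained for phospho-histone H3 after doxorubicin exposure, used as mitotic index; counts are raw and not normalised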", "direction": "mitotic cells: higher = more cells in mitosis, weaker G2 arrest", "active means": "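Genes are called active only when high mitotic counts were reproduced with independent dsRNAs and mitosis was checked for delay without damage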", "meaning of the calls": "active = confirmed in follow-up tests; inactive = not confirmed", "note": "The deposit covers about 23,000 reagents; below is a random part of those with a known target gene and a result. Over the whole deposit, 62 (0.27%) are marked active. 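Calls come from follow-up tests whose scores are not deposited, so confirmed genes may have low counts here; counts are not normalised per plate.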 Raw values vary from plate to plate and are shown uncorrected. The numbers tell different reagents against one gene apart. Names joined by + are all predicted targets of the reagent."}
{"gene": "alpha-Est9 (alpha-Esterase-9)", "reagent no.": 1, "mitotic cells, replicate 1": 4, "Outcome": "inactive"}
{"gene": "Ir8a (Ionotropic receptor 8a)", "reagent no.": 1, "mitotic cells, replicate 1": 5, "Outcome": "inactive"}
{"gene": "Ir8a (Ionotropic receptor 8a)", "reagent no.": 2, "mitotic cells, replicate 1": 9, "Outcome": "inactive"}
{"gene": "p47", "reagent no.": 1, "mitotic cells, replicate 1": 9, "Outcome": "inactive"}
{"gene": "CG9003", "reagent no.": 1, "mitotic cells, replicate 1": 6, "Outcome": "inactive"}
{"gene": "CG3649", "reagent no.": 1, "mitotic cells, replicate 1": 7, "Outcome": "inactive"}
{"gene": "CG3649", "reagent no.": 2, "mitotic cells, replicate 1": 8, "Outcome": "inactive"}
{"gene": "Sox14 (Sox box protein 14)", "reagent no.": 1, "mitotic cells, replicate 1": 8, "Outcome": "inactive"}
{"gene": "Sox14 (Sox box protein 14)", "reagent no.": 2, "mitotic cells, replicate 1": 9, "Outcome": "inactive"}
{"gene": "Khc-73 (Kinesin heavy chain 73)", "reagent no.": 1, "mitotic cells, replicate 1": 5, "Outcome": "inactive"}
{"gene": "Khc-73 (Kinesin heavy chain 73)", "reagent no.": 2, "mitotic cells, replicate 1": 9, "Outcome": "inactive"}
{"gene": "grsm (granny smith)", "reagent no.": 1, "mitotic cells, replicate 1": 4, "Outcome": "inactive"}
{"gene": "grsm (granny smith)", "reagent no.": 2, "mitotic cells, replicate 1": 6, "Outcome": "inactive"}
{"gene": "Hr78 (Hormone-receptor-like in 78)", "reagent no.": 1, "mitotic cells, replicate 1": 4, "Outcome": "inactive"}
{"gene": "Hr78 (Hormone-receptor-like in 78)", "reagent no.": 2, "mitotic cells, replicate 1": 4, "Outcome": "inactive"}
{"gene": "tst + CG10375", "reagent no.": 1, "mitotic cells, replicate 1": 11, "Outcome": "inactive"}
{"gene": "EMC1 (ER membrane protein complex subunit 1)", "reagent no.": 1, "mitotic cells, replicate 1": 8, "Outcome": "inactive"}
{"gene": "CG15471", "reagent no.": 1, "mitotic cells, replicate 1": 6, "Outcome": "inactive"}
{"gene": "CG15471", "reagent no.": 2, "mitotic cells, replicate 1": 7, "Outcome": "inactive"}
{"gene": "sc (scute)", "reagent no.": 1, "mitotic cells, replicate 1": 14, "Outcome": "inactive"}
{"gene": "sc (scute)", "reagent no.": 2, "mitotic cells, replicate 1": 10, "Outcome": "inactive"}
{"gene": "CG34178 + CG34177", "reagent no.": 1, "mitotic cells, replicate 1": 3, "Outcome": "inactive"}
{"gene": "CG30423", "reagent no.": 1, "mitotic cells, replicate 1": 7, "Outcome": "inactive"}
{"gene": "CG42336", "reagent no.": 1, "mitotic cells, replicate 1": 25, "Outcome": "inactive"}
{"gene": "CG42336", "reagent no.": 2, "mitotic cells, replicate 1": 9, "Outcome": "inactive"}
{"gene": "CG42336", "reagent no.": 3, "mitotic cells, replicate 1": 10, "Outcome": "inactive"}
{"gene": "CG42336", "reagent no.": 4, "mitotic cells, replicate 1": 8, "Outcome": "inactive"}
{"gene": "CG42336", "reagent no.": 5, "mitotic cells, replicate 1": 6, "Outcome": "inactive"}
{"gene": "Akh (Adipokinetic hormone)", "reagent no.": 1, "mitotic cells, replicate 1": 5, "Outcome": "inactive"}
{"gene": "Akh (Adipokinetic hormone)", "reagent no.": 2, "mitotic cells, replicate 1": 4, "Outcome": "inactive"}
{"gene": "CG5348", "reagent no.": 1, "mitotic cells, replicate 1": 7, "Outcome": "inactive"}
{"gene": "nesd (nessun dorma)", "reagent no.": 1, "mitotic cells, replicate 1": 6, "Outcome": "inactive"}
{"gene": "nesd (nessun dorma)", "reagent no.": 2, "mitotic cells, replicate 1": 2, "Outcome": "inactive"}
{"gene": "Eglp1 (Entomoglyceroporin 1)", "reagent no.": 1, "mitotic cells, replicate 1": 9, "Outcome": "inactive"}

Targets above whose target name begins with S or s:
{"gene": "Sox14 (Sox box protein 14)", "reagent no.": 1, "mitotic cells, replicate 1": 8, "Outcome": "inactive"}
{"gene": "Sox14 (Sox box protein 14)", "reagent no.": 2, "mitotic cells, replicate 1": 9, "Outcome": "inactive"}
{"gene": "sc (scute)", "reagent no.": 1, "mitotic cells, replicate 1": 14, "Outcome": "inactive"}
{"gene": "sc (scute)", "reagent no.": 2, "mitotic cells, replicate 1": 10, "Outcome": "inactive"}
